System: Fibrinogen
Test: Protein aggregate formation by SEC after UVC irradiation of fibrinogen solution
[1] = stabiliser 2 mmol/l, six passes

SMILES | new aggregates after treatment [1] [%] | new aggregates after treatment (stabiliser 100 mmol/l, six passes) [%] | new aggregates after treatment (stabiliser 5 mmol/l, six passes) [%] | new aggregates after treatment (stabiliser 0.01 mmol/l, eight passes) [%] | new aggregates after treatment (stabiliser 0.05 mmol/l, eight passes) [%] | new aggregates after treatment (stabiliser 0.1 mmol/l, eight passes) [%] | new aggregates after treatment (% aggregate increase) (stabiliser 0.5 mmol/l, eight passes) [%] | new aggregates after treatment (% aggregate increase) (stabiliser 1 mmol/l, eight passes) [%] | new aggregates after treatment (% aggregate increase) (stabiliser 2 mmol/l, eight passes) [%] | new aggregates after treatment (stabiliser 3 mmol/l, eight passes) [%] | new aggregates after treatment (stabiliser 4 mmol/l, eight passes) [%]
OC[C@@H](O)[C@@H](O)[C@H](O)[C@H](O)CO [mannitol, reference compound] | 7 | 9 |  |  |  |  |  |  |  |  | 
N[C@@H](Cc1c[nH]cn1)C(=O)O [histidine, reference compound] | 10 |  | 12 |  |  |  |  |  |  |  | 
COc1cc(C=O)ccc1O [vanillin] |  |  |  | 13 | 9 | 7 | 3 | 2 | 1 | 1 | 1
